The assay deals with T1, Lymphocyte antigen 6 family member H (LY6H) (human (endogenous in Huh7)) (UniProt O94772).
T1 sequence: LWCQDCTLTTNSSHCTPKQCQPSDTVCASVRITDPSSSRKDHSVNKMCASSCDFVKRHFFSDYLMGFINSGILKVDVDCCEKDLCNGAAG
Kind of assay: co-IP; Huh7 cells (control and LY6H-overexpressing) lysed in RIPA buffer with protease and phosphatase inhibitors; 2 ug anti-LY6H antibody or IgG control overnight at 4 C, Protein A/G magnetic beads, four washes with PBS; Western blot with anti-PI3K or anti-p-PI3K antibody. A general note: A western blot detects proteins with antibodies after separation by electrophoresis.

By UniProt entry, the sequences of proteins in these tests, tags left out.
UniProt P27986: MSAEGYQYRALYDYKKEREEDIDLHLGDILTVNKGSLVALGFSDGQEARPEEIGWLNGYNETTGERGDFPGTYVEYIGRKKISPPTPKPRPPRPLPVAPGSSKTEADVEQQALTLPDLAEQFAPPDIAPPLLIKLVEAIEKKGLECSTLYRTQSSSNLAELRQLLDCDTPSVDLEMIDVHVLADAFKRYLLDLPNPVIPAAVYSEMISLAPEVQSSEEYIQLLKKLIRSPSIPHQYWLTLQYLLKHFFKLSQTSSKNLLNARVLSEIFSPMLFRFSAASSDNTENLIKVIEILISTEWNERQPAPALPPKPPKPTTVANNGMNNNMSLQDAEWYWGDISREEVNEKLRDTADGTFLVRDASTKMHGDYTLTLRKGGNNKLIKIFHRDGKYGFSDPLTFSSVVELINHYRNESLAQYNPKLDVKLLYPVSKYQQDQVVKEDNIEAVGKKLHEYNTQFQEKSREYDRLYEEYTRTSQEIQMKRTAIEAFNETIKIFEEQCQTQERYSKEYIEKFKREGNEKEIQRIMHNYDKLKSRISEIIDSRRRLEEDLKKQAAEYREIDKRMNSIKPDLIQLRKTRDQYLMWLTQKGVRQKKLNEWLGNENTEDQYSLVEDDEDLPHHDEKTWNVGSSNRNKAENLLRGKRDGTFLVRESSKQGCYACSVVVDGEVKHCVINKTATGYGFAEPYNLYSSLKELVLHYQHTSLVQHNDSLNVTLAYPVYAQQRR

These are yes or no findings as the source states them, for the method shown. In cells and extracts the contact can be indirect. Some results given as binding are weak or reduced against the parent protein; the word gives no strength.

For the substance “phosphorylated PI3K p85 (Tyr467) (from UniProt P27986 1-724)”, the binding result is listed as “binds”.

For the substance “PI3K p85 subunit (total PI3K) (from UniProt P27986 1-724)”, the binding result was “binds”.

The values above are taken from article PMC13493903.
